Consider 24 targets from the supplement of paper PMC12819154, “High-throughput peptide-centric local stability assay extends protein–ligand identification to membrane proteins, tissues and bacteria” (Nature Structural & Molecular Biology, 2025).

The chains behind the UniProt entries cited, without tags or fusion partners. Where a name states a change or a piece, a line headed by the entry shows the natural chain unless it says otherwise.
UniProt Q13586, whole entry: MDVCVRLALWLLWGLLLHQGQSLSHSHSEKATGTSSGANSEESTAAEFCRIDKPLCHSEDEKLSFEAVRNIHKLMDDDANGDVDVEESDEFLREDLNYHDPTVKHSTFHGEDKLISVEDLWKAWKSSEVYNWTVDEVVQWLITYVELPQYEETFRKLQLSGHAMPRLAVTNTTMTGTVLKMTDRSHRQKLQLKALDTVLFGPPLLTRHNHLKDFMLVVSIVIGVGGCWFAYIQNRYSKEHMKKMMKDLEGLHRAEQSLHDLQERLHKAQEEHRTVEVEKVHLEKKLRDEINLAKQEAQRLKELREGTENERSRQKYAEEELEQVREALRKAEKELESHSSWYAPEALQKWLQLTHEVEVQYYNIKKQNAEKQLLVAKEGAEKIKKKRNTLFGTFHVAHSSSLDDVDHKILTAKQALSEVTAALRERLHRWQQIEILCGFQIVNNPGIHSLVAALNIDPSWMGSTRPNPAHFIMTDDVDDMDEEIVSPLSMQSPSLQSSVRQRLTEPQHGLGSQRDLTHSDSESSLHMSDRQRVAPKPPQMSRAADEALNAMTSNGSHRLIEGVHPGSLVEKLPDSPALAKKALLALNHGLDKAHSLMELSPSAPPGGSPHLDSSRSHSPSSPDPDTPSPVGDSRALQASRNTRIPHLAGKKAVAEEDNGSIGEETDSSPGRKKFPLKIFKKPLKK
UniProt Q13309, whole entry: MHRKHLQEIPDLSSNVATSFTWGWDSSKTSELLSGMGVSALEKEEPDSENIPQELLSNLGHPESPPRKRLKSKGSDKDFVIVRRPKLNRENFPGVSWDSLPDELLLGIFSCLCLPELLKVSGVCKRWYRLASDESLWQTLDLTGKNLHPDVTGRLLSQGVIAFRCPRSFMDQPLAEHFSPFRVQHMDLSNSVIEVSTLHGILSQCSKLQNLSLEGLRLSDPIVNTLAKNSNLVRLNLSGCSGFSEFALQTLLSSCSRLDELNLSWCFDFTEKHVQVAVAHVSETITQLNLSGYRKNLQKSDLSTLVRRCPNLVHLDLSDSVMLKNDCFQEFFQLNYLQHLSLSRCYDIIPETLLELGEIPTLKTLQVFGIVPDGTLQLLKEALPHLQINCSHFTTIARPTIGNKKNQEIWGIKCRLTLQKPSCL
UniProt Q13547, whole entry: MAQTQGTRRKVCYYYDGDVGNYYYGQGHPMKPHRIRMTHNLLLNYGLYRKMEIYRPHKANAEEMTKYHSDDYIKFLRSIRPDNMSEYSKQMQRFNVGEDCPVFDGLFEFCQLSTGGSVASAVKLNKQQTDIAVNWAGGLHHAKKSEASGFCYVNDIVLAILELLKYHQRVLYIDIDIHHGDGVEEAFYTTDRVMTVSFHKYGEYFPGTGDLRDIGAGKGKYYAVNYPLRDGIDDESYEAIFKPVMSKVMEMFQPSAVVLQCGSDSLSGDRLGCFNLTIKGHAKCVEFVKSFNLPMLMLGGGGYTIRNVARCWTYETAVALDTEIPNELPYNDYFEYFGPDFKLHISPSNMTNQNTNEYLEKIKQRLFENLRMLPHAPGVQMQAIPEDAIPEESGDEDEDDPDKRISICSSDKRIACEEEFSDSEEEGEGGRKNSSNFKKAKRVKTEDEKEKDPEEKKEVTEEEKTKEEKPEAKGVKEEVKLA
UniProt Q13371: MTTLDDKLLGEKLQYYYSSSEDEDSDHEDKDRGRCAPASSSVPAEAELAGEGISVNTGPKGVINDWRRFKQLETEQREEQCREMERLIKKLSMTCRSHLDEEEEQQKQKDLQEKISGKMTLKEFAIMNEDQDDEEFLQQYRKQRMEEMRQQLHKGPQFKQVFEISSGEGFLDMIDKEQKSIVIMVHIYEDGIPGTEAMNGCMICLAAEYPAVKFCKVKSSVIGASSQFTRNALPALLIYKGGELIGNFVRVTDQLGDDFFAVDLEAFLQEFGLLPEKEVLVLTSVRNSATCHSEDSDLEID
UniProt Q13439: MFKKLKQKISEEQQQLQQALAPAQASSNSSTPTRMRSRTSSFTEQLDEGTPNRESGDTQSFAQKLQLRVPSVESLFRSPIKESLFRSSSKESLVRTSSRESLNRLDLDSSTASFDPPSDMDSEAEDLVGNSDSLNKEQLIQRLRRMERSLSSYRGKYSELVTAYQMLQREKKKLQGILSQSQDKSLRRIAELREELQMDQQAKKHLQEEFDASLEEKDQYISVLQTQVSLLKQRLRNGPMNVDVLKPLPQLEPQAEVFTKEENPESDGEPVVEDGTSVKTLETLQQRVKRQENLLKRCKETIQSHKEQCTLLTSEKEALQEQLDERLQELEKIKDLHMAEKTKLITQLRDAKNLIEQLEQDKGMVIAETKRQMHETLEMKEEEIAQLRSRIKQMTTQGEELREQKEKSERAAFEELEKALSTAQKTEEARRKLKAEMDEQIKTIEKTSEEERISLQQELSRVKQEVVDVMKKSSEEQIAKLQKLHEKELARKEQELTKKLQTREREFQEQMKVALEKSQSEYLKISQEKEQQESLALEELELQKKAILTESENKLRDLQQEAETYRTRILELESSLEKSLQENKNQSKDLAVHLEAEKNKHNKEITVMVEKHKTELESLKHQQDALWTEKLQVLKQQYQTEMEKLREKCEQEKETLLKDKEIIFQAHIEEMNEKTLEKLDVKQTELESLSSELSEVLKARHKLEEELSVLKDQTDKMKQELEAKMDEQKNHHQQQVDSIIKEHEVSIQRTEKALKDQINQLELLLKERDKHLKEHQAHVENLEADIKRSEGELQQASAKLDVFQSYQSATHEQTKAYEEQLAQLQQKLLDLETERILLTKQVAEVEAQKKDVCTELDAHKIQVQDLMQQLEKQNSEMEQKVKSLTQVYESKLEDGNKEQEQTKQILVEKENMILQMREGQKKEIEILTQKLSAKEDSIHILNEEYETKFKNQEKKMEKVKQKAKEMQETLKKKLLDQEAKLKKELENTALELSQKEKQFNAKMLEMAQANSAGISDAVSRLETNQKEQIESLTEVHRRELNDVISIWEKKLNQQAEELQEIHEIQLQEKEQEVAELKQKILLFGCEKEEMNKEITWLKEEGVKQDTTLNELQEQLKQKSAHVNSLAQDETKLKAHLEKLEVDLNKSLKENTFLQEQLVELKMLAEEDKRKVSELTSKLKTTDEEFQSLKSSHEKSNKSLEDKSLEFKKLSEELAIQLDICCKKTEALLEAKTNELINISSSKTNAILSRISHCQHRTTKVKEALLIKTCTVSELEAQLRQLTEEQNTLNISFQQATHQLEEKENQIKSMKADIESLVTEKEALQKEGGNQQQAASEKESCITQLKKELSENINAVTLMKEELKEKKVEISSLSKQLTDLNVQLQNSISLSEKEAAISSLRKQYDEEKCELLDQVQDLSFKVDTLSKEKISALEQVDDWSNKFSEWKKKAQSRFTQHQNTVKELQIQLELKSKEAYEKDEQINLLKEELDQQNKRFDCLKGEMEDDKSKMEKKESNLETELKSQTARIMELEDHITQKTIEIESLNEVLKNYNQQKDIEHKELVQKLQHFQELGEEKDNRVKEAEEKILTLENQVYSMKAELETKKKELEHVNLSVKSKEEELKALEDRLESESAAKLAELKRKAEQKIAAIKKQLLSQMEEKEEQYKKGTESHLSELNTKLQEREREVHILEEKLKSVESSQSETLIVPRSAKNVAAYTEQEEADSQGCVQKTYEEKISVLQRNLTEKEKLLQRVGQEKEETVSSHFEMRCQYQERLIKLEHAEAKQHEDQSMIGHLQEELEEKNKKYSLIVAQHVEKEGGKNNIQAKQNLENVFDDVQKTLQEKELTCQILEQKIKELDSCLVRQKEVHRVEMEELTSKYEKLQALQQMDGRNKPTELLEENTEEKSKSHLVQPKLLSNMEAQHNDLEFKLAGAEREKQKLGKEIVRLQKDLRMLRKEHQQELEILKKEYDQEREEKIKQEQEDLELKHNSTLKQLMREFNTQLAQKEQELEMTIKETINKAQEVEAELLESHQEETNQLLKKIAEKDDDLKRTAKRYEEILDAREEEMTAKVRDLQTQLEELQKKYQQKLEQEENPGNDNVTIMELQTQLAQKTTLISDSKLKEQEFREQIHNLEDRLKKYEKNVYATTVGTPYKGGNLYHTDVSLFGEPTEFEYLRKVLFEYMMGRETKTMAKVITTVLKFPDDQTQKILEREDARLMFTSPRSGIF
UniProt Q13769: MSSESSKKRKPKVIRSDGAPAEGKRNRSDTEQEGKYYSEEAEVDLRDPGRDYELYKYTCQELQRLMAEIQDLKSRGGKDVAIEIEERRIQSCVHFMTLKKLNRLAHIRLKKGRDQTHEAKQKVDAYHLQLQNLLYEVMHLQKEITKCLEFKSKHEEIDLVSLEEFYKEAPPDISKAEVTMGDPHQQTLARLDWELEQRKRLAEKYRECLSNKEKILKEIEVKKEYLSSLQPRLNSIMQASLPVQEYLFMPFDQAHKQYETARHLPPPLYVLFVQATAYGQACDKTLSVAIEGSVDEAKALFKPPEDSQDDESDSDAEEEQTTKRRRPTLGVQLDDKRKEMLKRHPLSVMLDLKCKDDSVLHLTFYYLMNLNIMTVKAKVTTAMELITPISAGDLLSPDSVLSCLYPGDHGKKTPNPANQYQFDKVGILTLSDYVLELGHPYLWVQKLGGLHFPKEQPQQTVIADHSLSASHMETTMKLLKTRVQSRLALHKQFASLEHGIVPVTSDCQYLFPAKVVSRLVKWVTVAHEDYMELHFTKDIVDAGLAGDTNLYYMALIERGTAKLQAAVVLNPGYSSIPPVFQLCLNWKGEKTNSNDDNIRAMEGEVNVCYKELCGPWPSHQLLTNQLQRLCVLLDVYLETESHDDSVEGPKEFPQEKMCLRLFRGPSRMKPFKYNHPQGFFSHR
UniProt Q13423: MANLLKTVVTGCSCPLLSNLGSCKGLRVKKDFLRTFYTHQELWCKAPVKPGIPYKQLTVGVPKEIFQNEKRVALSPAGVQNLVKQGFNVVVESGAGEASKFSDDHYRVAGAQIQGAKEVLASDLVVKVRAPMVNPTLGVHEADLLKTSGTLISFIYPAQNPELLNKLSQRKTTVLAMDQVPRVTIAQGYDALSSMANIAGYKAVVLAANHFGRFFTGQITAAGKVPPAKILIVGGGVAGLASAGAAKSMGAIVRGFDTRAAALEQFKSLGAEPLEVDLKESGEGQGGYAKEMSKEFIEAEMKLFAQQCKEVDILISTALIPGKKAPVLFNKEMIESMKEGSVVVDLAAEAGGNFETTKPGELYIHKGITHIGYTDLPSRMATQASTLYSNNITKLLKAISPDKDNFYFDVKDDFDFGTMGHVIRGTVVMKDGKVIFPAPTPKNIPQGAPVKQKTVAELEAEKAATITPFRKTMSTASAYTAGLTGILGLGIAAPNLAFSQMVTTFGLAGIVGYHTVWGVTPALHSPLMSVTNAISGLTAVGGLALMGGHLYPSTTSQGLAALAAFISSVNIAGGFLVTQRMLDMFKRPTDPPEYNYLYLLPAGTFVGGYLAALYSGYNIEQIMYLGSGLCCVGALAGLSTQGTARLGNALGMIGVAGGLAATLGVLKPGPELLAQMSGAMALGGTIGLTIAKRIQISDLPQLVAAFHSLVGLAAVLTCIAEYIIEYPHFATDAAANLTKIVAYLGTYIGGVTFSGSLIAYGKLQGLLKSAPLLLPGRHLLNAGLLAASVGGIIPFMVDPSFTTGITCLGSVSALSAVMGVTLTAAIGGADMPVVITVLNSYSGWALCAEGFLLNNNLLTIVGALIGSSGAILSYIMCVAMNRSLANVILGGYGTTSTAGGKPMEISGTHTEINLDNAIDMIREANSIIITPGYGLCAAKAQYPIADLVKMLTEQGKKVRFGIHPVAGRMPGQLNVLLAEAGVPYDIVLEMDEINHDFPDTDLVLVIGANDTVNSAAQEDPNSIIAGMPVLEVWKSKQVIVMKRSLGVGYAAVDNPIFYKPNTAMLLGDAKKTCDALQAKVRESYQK
UniProt Q14534: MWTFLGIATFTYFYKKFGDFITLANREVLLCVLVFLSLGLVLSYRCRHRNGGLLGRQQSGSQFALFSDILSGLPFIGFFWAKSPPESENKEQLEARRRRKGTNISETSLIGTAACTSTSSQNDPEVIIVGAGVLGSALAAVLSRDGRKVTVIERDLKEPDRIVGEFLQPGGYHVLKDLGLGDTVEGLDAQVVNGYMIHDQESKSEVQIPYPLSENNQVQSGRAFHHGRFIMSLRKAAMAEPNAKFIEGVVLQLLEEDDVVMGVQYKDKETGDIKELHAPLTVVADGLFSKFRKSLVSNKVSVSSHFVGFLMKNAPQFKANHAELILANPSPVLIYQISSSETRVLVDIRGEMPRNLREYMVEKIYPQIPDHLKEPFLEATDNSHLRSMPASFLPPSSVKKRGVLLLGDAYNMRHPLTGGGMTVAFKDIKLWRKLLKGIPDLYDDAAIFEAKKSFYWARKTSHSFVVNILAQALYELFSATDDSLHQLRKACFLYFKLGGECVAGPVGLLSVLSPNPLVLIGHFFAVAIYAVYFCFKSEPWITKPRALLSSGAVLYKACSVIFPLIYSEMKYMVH

This is one part of the list. Most values lie at the level of the controls, where differences are scatter.

Compound in the test: CN[C@@H]1C[C@H]2O[C@@](C)([C@@H]1OC)n1c3ccccc3c3c4c(c5c6ccccc6n2c5c31)C(=O)NC4 [staurosporine]
Kind of test: log2 fold change of tryptic peptide abundance, ligand vs vehicle (limited proteolysis) (log2 ratio); higher = more trypsin-susceptible (destabilized). The note with it: ligand concentration: 20 uM; sample: K562 cleared lysate; digestion: 4 min, 22 C (HT-PELSA RT4min, Orbitrap Astral).
As to “STIM1 (peptide sequence: DLTHSDSESSLHMSDR, peptide start residue: 515) (UniProt Q13586)”, the log2 fold change is -0.162. Take “NFIX (peptide sequence: SITSPPSTSTTK, peptide start residue: 265) (UniProt Q14938)”: the log2 fold change worked out at 0.00219.

Regarding “UniProt Q13164 (peptide sequence: LTGQQVAIK, peptide start residue: 76)”, the log2 fold change was -0.642. The value for “SKP2 (peptide sequence: LLSQGVIAFR, peptide start residue: 155) (UniProt Q13309)” was -0.752. The value for “MAD2L1BP (peptide sequence: NCGEDWFRPK, peptide start residue: 220) (UniProt Q15013)” was -0.466. The value for “ORC1 (peptide sequence: LTEPHQVYVQILQK, peptide start residue: 573) (UniProt Q13415)” was -0.651; that for “HDAC1 (peptide sequence: YYAVNYPLR, peptide start residue: 221) (UniProt Q13547)” was -0.301. With “SMC1A (peptide sequence: GEPETFLPLDYLEVKPTDEKLR, peptide start residue: 565) (UniProt Q14683)”, the log2 fold change worked out at 0.278.

Turning to “GAB1 (peptide sequence: LTGDPDVLEYYKNDHAK, peptide start residue: 38) (UniProt Q13480)”, the log2 fold change is -0.311. As for “PDCL (peptide sequence: FKQLETEQREEQCR, peptide start residue: 69) (UniProt Q13371)”, the log2 fold change was -0.23.

For “UniProt Q14197 (peptide sequence: FHLATAEWIAEPVRQK, peptide start residue: 103)”, the log2 fold change is -0.273.

Consider “MTMR3 (peptide sequence: AGIEIQEGKEDPLLEK, peptide start residue: 710) (UniProt Q13615)”, for which the log2 fold change was -0.307. The value for “EFR3A (peptide sequence: LTFYAVSAPEKLDR, peptide start residue: 40) (UniProt Q14156)” was 0.762; that for “GOLGA4 (peptide sequence: KEQELTKK, peptide start residue: 492) (UniProt Q13439)” was 0.493. For “THOC5 (peptide sequence: YTCQELQR, peptide start residue: 57) (UniProt Q13769)”, the log2 fold change was -0.38.

Consider “UniProt Q14444 (peptide sequence: LDDYQER, peptide start residue: 75)”, for which the log2 fold change is -0.0972. “NNT (peptide sequence: VALSPAGVQNLVK, peptide start residue: 72) (UniProt Q13423)”: the log2 fold change was 0.109. The value for “TCOF1 (peptide sequence: NPASLPLTQAALK, peptide start residue: 1066) (UniProt Q13428)” was 0.213. The value for “XRCC4 (peptide sequence: FILVLNEK, peptide start residue: 180) (UniProt Q13426)” was -0.138; that for “SQLE (peptide sequence: SPPESENKEQLEAR, peptide start residue: 83) (UniProt Q14534)” was 0.392. On to “SETDB1 (peptide sequence: ELLCCCGAIECR, peptide start residue: 1276) (UniProt Q15047)”, for which the log2 fold change was determined as 0.665.

In the case of “MYO9B (peptide sequence: SPLEHSSPEK, peptide start residue: 1109) (UniProt Q13459)”, the log2 fold change stood at 0.473. In the case of “UniProt Q14CX7 (peptide sequence: KMQQAGMALYK, peptide start residue: 131)”, the log2 fold change was determined as 1.02.

With “SPTAN1 (peptide sequence: VLETAEDIQERR, peptide start residue: 8) (UniProt Q13813)”, the log2 fold change was -0.687.
